Data from paper PMC10944492.

T1: SFB-tagged mouse Nfatc1, full-length (mouse) (UniProt O88942)
T1 sequence: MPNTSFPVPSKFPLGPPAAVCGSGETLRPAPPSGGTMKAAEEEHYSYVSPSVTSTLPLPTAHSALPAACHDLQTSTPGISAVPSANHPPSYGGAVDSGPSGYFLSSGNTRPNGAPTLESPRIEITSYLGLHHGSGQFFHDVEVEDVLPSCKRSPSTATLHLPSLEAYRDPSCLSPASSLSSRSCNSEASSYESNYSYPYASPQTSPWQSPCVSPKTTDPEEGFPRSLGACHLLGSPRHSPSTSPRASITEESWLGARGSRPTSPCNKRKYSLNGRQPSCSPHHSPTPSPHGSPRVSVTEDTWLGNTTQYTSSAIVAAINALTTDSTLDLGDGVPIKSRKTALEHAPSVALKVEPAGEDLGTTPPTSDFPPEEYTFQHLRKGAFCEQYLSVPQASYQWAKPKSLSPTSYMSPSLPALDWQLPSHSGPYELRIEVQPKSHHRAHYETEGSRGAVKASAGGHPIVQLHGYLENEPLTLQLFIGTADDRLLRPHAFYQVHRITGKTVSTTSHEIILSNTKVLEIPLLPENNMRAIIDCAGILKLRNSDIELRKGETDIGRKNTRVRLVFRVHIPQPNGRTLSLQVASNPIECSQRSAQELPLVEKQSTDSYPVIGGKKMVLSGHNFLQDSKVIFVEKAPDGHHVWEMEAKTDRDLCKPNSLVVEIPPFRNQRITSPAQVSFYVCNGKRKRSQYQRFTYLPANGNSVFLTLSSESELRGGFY


Columns and labels:
[1] = molecular target: T1, SFB-tagged mouse Nfatc1, full-length (mouse); test: co-IP; co-IP of Yap with Nfatc1 (Supplementary Fig. 8e); constructs and cells not told in the text shown
[2] = molecular target: MYC-tagged mouse Tead3 truncation mutant: C-terminal YAP-binding domain (mouse); test: co-IP; HEK293T cells co-transfected with SFB-Nfatc1 and MYC-Tead3 (full-length or truncated); pulldown with a MYC-specific antibody; blots for MYC and FLAG
[3] = molecular target: MYC-tagged mouse Tead3 truncation mutant: TEA domain (N-terminal DBD) (mouse); test: as above

binding [1] | binding [2] | binding [3] | Molecule
no binding |  |  | Yap
 | no binding | binds | SFB-tagged mouse Nfatc1, full-length (protein, UniProt O88942 1-717) MPNTSFPVPSKFPLGPPAAVCGSGETLRPAPPSGGTMKAAEEEHYSYVSPSVTSTLPLPTAHSALPAACHDLQTSTPGISAVPSANHPPSYGGAVDSGPSGYFLSSGNTRPNGAPTLESPRIEITSYLGLHHGSGQFFHDVEVEDVLPSCKRSPSTATLHLPSLEAYRDPSCLSPASSLSSRSCNSEASSYESNYSYPYASPQTSPWQSPCVSPKTTDPEEGFPRSLGACHLLGSPRHSPSTSPRASITEESWLGARGSRPTSPCNKRKYSLNGRQPSCSPHHSPTPSPHGSPRVSVTEDTWLGNTTQYTSSAIVAAINALTTDSTLDLGDGVPIKSRKTALEHAPSVALKVEPAGEDLGTTPPTSDFPPEEYTFQHLRKGAFCEQYLSVPQASYQWAKPKSLSPTSYMSPSLPALDWQLPSHSGPYELRIEVQPKSHHRAHYETEGSRGAVKASAGGHPIVQLHGYLENEPLTLQLFIGTADDRLLRPHAFYQVHRITGKTVSTTSHEIILSNTKVLEIPLLPENNMRAIIDCAGILKLRNSDIELRKGETDIGRKNTRVRLVFRVHIPQPNGRTLSLQVASNPIECSQRSAQELPLVEKQSTDSYPVIGGKKMVLSGHNFLQDSKVIFVEKAPDGHHVWEMEAKTDRDLCKPNSLVVEIPPFRNQRITSPAQVSFYVCNGKRKRSQYQRFTYLPANGNSVFLTLSSESELRGGFY

These are yes or no findings as the source states them, for the method shown. Binding seen in cells or lysates may run through a third protein. For part of these data: A result given as binding can be weak or reduced; the word gives no strength. Where a sequence is shown, tags or fusion partners need not be part of it.
